Our source for the binding values is article PMC8619209.

Chains of the proteins cited; added tags and fusions are not shown. Lines headed by an entry give the natural chain unless they say otherwise; changes in a name come on top.
UniProt P25999: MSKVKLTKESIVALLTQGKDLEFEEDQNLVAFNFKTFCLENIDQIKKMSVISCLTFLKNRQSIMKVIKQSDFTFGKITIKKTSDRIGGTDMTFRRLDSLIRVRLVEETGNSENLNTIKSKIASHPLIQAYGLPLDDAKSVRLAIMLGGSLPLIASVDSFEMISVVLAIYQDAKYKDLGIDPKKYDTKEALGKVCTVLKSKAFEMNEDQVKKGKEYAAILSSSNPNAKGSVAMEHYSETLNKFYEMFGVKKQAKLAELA
UniProt P26002: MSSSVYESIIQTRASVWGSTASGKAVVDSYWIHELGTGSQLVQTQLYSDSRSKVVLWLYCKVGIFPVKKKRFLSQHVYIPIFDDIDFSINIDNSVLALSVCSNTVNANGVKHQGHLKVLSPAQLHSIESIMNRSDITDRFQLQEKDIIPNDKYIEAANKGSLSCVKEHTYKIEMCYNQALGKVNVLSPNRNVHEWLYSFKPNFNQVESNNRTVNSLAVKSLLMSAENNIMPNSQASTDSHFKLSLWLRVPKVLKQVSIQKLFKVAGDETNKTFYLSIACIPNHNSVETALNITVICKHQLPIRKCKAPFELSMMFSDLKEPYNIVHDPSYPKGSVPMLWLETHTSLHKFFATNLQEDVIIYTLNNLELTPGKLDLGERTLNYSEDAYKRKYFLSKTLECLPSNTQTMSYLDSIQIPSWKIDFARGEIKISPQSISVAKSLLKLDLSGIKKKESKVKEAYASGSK

These are yes or no findings as the source states them, for the method shown. In cells and extracts the contact can be indirect. Some entries that bind do so weakly or less than the wild type.

The test concerns the target TSWV ribonucleoprotein complexes (RNPs) isolated from TSWV-infected N. benthamiana (Tomato spotted wilt orthotospovirus (isolate BR-01)) (UniProt P25999). Put plainly: co-sedimentation.

Regarding “TSWV RNA silencing suppressor NSs (from UniProt P26002 1-464)”, the binding result was “binds”.
